Data reported in the supplement of paper PMC10849652.
Some of the results follow.

Amino acid sequences for entries named in this document (tags omitted). A change or cut given only in a name is not applied to a line headed by its entry.
UniProt Q9P2J5: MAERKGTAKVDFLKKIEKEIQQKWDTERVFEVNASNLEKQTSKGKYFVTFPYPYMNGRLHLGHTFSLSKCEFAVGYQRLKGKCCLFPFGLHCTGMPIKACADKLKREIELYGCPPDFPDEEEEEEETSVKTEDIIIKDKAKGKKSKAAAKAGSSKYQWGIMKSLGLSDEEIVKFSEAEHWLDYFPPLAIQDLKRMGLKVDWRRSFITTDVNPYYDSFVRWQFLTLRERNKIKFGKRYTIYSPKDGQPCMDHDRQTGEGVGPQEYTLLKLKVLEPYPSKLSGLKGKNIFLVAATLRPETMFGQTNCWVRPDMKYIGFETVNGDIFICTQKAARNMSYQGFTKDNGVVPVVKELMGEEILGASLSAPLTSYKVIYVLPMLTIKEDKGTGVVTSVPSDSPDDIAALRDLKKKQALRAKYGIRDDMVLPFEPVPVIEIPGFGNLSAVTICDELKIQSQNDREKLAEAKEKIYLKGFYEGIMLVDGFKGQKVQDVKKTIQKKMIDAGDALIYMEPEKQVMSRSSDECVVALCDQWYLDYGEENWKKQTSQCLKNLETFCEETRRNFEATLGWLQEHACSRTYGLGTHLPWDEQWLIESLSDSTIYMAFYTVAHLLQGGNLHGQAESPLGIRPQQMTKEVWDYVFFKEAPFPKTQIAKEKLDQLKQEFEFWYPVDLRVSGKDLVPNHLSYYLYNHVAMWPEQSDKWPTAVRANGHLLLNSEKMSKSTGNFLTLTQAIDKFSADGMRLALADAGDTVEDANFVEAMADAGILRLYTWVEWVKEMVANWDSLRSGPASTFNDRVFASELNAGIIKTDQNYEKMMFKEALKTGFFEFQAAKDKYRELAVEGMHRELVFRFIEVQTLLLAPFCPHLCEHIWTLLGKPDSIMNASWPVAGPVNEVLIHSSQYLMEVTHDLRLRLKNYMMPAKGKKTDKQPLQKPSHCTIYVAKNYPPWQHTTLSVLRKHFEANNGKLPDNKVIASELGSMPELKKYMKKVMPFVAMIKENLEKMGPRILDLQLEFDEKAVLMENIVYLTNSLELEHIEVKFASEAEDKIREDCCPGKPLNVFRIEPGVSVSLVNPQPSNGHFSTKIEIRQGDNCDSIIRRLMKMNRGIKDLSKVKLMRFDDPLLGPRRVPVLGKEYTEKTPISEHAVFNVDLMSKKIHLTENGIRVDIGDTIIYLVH
UniProt Q07666, whole entry, looked up: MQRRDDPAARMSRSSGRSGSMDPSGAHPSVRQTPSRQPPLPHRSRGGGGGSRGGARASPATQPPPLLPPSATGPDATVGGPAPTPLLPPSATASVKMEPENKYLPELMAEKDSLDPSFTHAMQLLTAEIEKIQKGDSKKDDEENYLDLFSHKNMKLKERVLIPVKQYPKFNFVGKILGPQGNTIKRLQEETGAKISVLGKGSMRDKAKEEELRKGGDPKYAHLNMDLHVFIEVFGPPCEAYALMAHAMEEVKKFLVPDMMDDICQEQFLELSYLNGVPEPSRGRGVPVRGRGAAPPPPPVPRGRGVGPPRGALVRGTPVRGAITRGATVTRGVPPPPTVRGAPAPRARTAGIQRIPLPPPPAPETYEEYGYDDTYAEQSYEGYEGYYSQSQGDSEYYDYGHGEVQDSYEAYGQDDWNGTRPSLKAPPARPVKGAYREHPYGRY
UniProt Q53H82: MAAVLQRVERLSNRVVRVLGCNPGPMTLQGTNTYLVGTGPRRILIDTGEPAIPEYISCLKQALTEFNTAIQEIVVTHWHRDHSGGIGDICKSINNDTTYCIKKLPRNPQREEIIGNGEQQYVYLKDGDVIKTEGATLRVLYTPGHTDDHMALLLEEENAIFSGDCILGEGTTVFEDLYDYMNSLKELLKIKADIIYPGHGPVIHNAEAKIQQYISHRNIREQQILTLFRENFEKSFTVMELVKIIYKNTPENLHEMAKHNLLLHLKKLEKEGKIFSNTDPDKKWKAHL
UniProt A5PL33: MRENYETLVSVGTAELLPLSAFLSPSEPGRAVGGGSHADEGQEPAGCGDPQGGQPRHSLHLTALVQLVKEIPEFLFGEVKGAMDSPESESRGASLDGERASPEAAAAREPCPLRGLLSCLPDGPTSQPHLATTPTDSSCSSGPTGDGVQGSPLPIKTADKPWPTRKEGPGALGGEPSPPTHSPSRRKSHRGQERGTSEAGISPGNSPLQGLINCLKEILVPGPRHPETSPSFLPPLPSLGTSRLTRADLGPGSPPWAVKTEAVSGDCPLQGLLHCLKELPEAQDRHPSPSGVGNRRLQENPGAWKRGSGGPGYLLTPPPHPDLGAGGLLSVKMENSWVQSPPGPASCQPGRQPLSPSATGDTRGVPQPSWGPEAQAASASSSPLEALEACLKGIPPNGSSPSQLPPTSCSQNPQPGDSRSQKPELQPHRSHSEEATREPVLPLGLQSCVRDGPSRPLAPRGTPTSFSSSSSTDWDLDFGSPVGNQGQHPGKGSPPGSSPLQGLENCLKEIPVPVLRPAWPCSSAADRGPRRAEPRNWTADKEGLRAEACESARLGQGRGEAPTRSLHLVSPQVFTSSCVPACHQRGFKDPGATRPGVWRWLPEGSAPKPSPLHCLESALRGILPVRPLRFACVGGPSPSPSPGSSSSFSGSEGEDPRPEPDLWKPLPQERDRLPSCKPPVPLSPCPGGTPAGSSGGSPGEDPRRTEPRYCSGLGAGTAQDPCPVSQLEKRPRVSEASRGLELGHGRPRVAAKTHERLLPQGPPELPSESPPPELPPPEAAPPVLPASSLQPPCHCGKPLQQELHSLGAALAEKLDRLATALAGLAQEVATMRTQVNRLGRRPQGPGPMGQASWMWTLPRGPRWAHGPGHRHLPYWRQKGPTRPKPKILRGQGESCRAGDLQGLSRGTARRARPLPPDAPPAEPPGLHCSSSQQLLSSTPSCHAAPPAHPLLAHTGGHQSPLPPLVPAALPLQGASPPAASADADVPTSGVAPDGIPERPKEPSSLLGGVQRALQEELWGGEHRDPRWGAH
UniProt P50748: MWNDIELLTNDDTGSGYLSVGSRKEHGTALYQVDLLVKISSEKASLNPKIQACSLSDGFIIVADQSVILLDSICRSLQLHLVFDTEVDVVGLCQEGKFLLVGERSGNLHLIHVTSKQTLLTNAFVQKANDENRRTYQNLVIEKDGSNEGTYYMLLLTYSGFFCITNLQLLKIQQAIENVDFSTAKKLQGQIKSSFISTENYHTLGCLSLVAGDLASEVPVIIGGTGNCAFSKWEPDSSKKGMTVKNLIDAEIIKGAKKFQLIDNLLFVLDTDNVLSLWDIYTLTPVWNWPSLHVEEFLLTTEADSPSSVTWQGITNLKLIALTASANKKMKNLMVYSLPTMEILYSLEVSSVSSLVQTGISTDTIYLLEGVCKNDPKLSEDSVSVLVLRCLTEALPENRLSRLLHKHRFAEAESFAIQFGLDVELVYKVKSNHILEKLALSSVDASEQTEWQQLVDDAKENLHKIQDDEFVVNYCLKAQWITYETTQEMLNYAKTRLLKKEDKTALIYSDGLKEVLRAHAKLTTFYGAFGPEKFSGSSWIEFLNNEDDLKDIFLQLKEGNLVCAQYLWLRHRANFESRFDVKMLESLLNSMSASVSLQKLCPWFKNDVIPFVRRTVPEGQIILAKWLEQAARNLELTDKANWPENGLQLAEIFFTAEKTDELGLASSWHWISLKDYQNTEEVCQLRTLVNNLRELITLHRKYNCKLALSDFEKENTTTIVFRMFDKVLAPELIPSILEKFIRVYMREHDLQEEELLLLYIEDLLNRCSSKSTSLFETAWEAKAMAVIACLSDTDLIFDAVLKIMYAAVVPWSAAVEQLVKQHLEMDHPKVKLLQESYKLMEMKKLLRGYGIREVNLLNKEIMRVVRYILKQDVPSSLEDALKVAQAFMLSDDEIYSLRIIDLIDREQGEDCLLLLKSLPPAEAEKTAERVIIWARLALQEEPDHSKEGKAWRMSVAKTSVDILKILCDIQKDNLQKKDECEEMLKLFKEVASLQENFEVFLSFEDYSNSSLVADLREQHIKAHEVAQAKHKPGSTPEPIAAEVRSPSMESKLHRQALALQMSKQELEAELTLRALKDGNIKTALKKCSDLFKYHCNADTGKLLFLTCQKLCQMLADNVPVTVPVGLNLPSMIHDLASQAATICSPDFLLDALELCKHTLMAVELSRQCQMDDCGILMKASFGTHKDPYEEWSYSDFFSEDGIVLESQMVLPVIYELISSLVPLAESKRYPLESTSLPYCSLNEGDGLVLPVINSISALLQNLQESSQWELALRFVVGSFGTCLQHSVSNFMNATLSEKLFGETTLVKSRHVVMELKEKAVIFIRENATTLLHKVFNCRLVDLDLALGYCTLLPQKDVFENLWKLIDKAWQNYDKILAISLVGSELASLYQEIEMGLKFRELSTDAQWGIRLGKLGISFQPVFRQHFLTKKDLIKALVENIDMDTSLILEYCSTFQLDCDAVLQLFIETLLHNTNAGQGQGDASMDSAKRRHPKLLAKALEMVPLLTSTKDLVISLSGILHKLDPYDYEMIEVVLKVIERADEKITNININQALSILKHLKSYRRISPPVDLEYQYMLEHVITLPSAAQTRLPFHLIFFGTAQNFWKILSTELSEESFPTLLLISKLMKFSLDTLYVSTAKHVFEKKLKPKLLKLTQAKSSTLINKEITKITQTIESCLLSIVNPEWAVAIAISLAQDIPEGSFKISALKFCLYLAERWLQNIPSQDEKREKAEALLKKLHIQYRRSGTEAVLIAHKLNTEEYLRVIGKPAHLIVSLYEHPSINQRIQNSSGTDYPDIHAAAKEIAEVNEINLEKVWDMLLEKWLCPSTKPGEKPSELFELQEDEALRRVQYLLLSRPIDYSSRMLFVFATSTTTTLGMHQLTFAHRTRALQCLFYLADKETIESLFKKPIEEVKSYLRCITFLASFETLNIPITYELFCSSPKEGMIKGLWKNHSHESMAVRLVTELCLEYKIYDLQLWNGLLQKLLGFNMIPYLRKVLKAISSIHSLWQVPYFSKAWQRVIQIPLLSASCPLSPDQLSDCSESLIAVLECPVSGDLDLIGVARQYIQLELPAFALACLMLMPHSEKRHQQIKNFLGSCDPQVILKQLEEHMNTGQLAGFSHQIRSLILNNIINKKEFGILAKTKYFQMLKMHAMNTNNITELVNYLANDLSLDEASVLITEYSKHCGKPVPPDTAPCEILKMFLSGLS
UniProt O00629, whole entry, looked up: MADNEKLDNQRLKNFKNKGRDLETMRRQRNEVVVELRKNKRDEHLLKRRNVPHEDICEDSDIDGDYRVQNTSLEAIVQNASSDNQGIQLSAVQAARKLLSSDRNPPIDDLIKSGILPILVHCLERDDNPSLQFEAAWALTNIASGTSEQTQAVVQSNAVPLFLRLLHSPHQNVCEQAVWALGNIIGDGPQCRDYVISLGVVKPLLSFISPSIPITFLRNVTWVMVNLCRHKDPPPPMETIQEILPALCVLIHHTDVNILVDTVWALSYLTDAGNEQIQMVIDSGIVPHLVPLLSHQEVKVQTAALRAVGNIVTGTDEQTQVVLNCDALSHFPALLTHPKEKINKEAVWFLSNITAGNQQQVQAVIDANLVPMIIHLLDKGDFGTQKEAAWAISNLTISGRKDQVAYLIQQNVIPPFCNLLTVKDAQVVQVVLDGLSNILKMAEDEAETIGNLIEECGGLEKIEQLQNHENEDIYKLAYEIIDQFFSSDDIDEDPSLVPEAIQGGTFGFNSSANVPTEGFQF

Tests used:
Assay in all cases: log2 fold change, soluble protein after heating vs DMSO (PISA); higher = thermal stabilisation; K562 lysate, 10 uM; active = over 0.2 and 3.5 SD of the protein, either way, in both replicates (recomputed)
[1] = compound: C#Cc1cccc(Nc2ncnc3cc(OCCOC)c(OCCOC)cc23)c1 [erlotinib]
Method in brief: (§1)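 Dounce homogenisation of K562 pellets in PBS pH 7.4 with 1 mM MgCl2 produced a crude extract, used at 1 mg/mL protein. Exposure to 10 μM compound lasted 30 min, and aliquots were then heated for 3 min across 48°C-58°C, pooled and brought to 0.5% NP-40 at 4°C. The supernatant after 21,000xg for 90 min was quantified by TMTpro 16plex LC-MS/MS with channel sums equalised. Duplicate values are given as log-two fold change in thermal stability relative to solvent controls.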

[2] = compound: C/C(=N\NC(=O)C1=CC(=CC=C1)S(=O)(=O)N2CCOCC2)/C3=C(C=CC(=C3)Cl)O
Method in brief: as §1

[3] = compound: C1=CC(=CC=C1C2=NC3=C(N2)C=C(C=C3)C(=O)N)OC4=CC=C(C=C4)Cl
Method in brief: as §1

[4] = compound: C1=CC2=C(C=CC(=C2)/C=C\3/C(=O)NC(=NCC4=CC=CS4)S3)N=C1
Method in brief: as §1

[5] = compound: C1=CC2=NC=CN=C2C=C1/C=C/3\C(=O)NC(=O)S3
Method in brief: as §1

[6] = compound: C1=CC=C(C=C1)C2=NC(=C(N2)C3=CC=NC=C3)C4=CC(=C(C=C4)Cl)O
Method in brief: as §1

[7] = compound: C1=CC=C2C(=C1)C3=NNC4=CC=CC(=C43)C2=O
Method in brief: as §1

[8] = compound: C1CCN(C1)C(=O)NC2=CC=CC(=C2)NC3=NC=C(C(=N3)NCCC4=CN=CN4)Br
Method in brief: as §1

[9] = compound: C1CN(CCC1(CC2=CC=C(C=C2)Cl)N)C3=NC=NC4=C3C=CN4
Method in brief: as §1

[10] = compound: C1COCCN1CCN2C3=CC=CC=C3N=C2NC(=O)C4=CC(=CC=C4)[N+](=O)[O-] [IRAK-1-4 Inhibitor I]
Method in brief: as §1

[11] = compound: C=CC(=O)N1CCC[C@@H](n2nc(-c3ccc(Oc4ccccc4)cc3)c3c(N)ncnc32)C1 [ibrutinib]
Method in brief: as §1

[12] = compound: CC(=O)c1cnc2ccc(-c3cc(Cl)c(O)c(Cl)c3)nc2c1N[C@H]1CC[C@H](CN(C)C)CC1
Method in brief: as §1

[13] = compound: CC(C)(C)Cn1c(N)nc2ccc(-c3[nH]c(C(C)(C)C)nc3-c3ccc(F)cc3)nc21 [ralimetinib]
Method in brief: as §1

[14] = compound: CC(C)(O)CC(=O)NCCn1ccc2ncnc(Nc3ccc(Oc4cccc(C(F)(F)F)c4)c(Cl)c3)c21
Method in brief: as §1

[15] = compound: CC(C)C1=C2N=C(C=C(N2N=C1)NCC3=CC=CC=C3)NCCCCCCN
Method in brief: as §1

[16] = compound: CC1=C(C(CC(=O)N1)C2=CC=C(C=C2)C(F)(F)F)C(=O)NC3=C(C=C4C(=C3)C=NN4)F
Method in brief: as §1

[17] = compound: CC1=C(C2=C(C=C1)C(=O)C3=CC=CC=C3N2CCCN)C
Method in brief: as §1

[18] = compound: CC1=C(C=C(C=C1)NC(=O)C2=CC(=CC=C2)C(C)(C)C#N)NC3=CC4=C(C=C3)N=CN(C4=O)C
Method in brief: as §1

[19] = compound: CC1=C(C=C(C=C1)NC(=O)C2=CC(=CC=C2)N(C)C)NC(=O)C3=CC=C(C=C3)O
Method in brief: as §1

[20] = compound: CC1=CC=C(C=C1)SC2=C3C=C(SC3=CN=C2)C(=O)N
Method in brief: as §1

Measured: log2 fold change

LARS (UniProt Q9P2J5)
inactive: [1] 0.021 | [2] 0.05 | [3] -0.024 | [4] 0.024 | [5] 0.013 | [6] 0.016 | [7] -0.026 | [8] -0.012 | [9] -0.002 | [10] -0.032 | [11] -0.021 | [12] -0.003 | [13] 0.023 | [14] 0.048 | [15] 0.021 | [16] -0.001 | [17] -0.017 | [18] -0.041 | [19] 0.029 | [20] 0.022

KHDRBS1 (UniProt Q07666)
active: [12] -0.517
inactive: [1] -0.013 | [2] 0.001 | [3] -0.035 | [4] 0.009 | [5] -0.038 | [6] 0.006 | [7] -0.016 | [8] 0.026 | [9] 0.037 | [10] -0.013 | [11] 0.023 | [13] -0.021 | [14] -0.009 | [15] 0.016 | [16] 0.023 | [17] 0.007 | [18] -0.026 | [19] 0 | [20] 0.044

LACTB2 (UniProt Q53H82)
inactive: [1] 0.01 | [2] -0.104 | [3] 0.033 | [4] -0.006 | [5] 0.006 | [6] 0.011 | [7] 0.003 | [8] 0.001 | [9] 0.007 | [10] -0.023 | [11] 0.019 | [12] -0.002 | [13] -0.034 | [14] -0.014 | [15] -0.032 | [16] 0.008 | [17] -0.02 | [18] 0.035 | [19] -0.023 | [20] -0.012

KIF4A (UniProt O95239)
inactive: [1] 0.015 | [2] -0.022 | [3] -0.042 | [4] 0.02 | [5] 0.022 | [6] 0.014 | [7] -0.033 | [8] -0.026 | [9] 0.031 | [10] -0.01 | [11] 0.011 | [12] 0.007 | [13] -0.014 | [14] 0.003 | [15] -0.002 | [16] -0.013 | [17] -0.027 | [18] 0.004 | [19] 0.056 | [20] 0.048

KRBA1 (UniProt A5PL33)
inactive: [1] 0.105 | [2] 0.114 | [3] 0.005 | [4] 0.093 | [5] -0.056 | [6] 0.132 | [7] -0.195 | [8] -0.105 | [9] -0.016 | [10] 0.071 | [11] 0.113 | [12] -0.185 | [13] 0.054 | [14] -0.01 | [15] 0.057 | [17] 0.136 | [18] -0.107 | [19] 0.058 | [20] -0.086

KHDC4 (UniProt Q7Z7F0)
inactive: [1] -0.021 | [2] -0.063 | [3] 0.015 | [4] -0.025 | [5] -0.014 | [6] -0.063 | [7] 0.006 | [8] -0.023 | [9] 0.014 | [10] 0.062 | [11] 0.03 | [12] -0.006 | [13] 0.007 | [14] -0.051 | [15] -0.028 | [16] -0.044 | [17] 0.018 | [18] 0.013 | [19] -0.053 | [20] -0.014

KNTC1 (UniProt P50748)
inactive: [1] -0.004 | [2] 0.009 | [3] 0.013 | [4] 0.033 | [5] -0.006 | [6] -0.014 | [7] -0.05 | [8] -0.021 | [9] 0.027 | [10] 0.004 | [11] -0.012 | [12] 0.005 | [13] 0.013 | [14] -0.047 | [15] -0.014 | [16] -0.009 | [17] 0.002 | [18] 0.021 | [19] 0.044 | [20] 0.017

KPNA4 (UniProt O00629)
inactive: [1] -0.015 | [2] -0.037 | [3] 0.046 | [4] 0.022 | [5] -0.014 | [6] -0.013 | [7] -0.007 | [8] -0.045 | [9] -0.012 | [10] 0.038 | [11] -0.037 | [12] -0.047 | [13] -0.024 | [14] 0.002 | [15] 0.019 | [16] 0.003 | [17] 0.019 | [18] 0.019 | [19] 0 | [20] -0.018
